One experiment has as its target T1, Loop12-ACAD9 (human) (UniProt Q9H845).
T1 sequence: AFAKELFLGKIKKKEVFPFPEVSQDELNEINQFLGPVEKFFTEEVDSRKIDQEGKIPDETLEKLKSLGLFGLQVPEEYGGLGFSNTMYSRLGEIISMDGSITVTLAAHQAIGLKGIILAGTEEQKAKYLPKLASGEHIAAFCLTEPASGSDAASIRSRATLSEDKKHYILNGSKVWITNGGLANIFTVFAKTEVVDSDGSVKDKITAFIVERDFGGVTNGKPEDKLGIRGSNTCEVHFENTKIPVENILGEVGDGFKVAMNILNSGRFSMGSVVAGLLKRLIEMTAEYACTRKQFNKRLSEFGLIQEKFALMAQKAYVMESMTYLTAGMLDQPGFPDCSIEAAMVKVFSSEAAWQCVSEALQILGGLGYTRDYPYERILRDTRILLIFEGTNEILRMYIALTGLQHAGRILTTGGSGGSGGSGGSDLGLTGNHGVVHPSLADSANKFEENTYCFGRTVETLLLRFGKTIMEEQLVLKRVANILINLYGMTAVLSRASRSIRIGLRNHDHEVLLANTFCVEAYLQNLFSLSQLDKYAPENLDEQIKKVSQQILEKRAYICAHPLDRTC
The experiment can be described thus: SEC. For orientation: Size exclusion chromatography separates by hydrodynamic size, large species first.

Experiment [1] deals with His6-SMT3-NDUFAF1 (human) (UniProt Q9Y375). As to the kind of experiment: SEC.
Experiment [2] deals with T2, ACAD9-His6 (human), Q9H845.
T2 chain: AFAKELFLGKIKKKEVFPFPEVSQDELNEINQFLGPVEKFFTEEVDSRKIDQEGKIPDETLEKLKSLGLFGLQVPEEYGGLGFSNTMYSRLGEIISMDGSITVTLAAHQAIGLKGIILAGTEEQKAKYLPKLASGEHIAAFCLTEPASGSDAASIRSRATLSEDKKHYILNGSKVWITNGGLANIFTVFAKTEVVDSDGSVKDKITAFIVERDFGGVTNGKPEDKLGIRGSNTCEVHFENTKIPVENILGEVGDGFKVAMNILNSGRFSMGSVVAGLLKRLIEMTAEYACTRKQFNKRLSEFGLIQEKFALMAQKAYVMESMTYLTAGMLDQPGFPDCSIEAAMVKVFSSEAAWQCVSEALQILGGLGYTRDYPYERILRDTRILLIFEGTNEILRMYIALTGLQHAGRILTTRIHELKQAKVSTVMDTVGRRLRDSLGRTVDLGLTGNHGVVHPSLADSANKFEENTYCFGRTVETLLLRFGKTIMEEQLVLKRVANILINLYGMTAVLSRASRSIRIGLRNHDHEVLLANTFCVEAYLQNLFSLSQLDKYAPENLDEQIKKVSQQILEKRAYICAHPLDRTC
The experiment can be described thus: pull-down. The settings on record: remark: other sources report otherwise.

No constants are given. Whether binding was seen depends on the method and setting. Some results given as binding are weak or reduced against the parent protein; the word gives no strength. For part of these data: Where a sequence is shown, tags or fusion partners need not be part of it.

Our source for the binding values is paper doi:10.1101/2021.01.07.425795 (bioRxiv, 2021).

B1: His6-ECSIT (natural protein, human, UniProt Q9BQ95 49-431, looked up)
chain: SSEQSLVPSPPEPRQRPTKALVPFEDLFGQAPGGERDKASFLQTVQKFAEHSVRKRGHIDFIYLALRKMREYGVERDLAVYNQLLNIFPKEVFRPRNIIQRIFVHYPRQQECGIAVLEQMENHGVMPNKETEFLLIQIFGRKSYPMLKLVRLKLWFPRFMNVNPFPVPRDLPQDPVELAMFGLRHMEPDLSARVTIYQVPLPKDSTGAADPPQPHIVGIQSPDQQAALARHNPARPVFVEGPFSLWLRNKCVYYHILRADLLPPEEREVEETPEEWNLYYPMQLDLEYVRSGWDNYEFDINEVEEGPVFAMCMAGAHDQATMAKWIQGLQETNPTLAQIPVVFRLAGSTRELQTSSAGLEEPPLPEDHQEEDDNLQRQQQGQS
For the molecule B1, the binding result with Loop12-ACAD9 (human) is on record as “binds”.

B2: His6-SMT3-NDUFAF1 (natural protein, human, UniProt Q9Y375 25-327, looked up)
chain: YPFLGIRFAEYSSSLQKPVASPGKASSQRKTEGDLQGDHQKEVALDITSSEEKPDVSFDKAIRDEAIYHFRLLKDEIVDHWRGPEGHPLHEVLLEQAKVVWQFRGKEDLDKWTVTSDKTIGGRSEVFLKMGKNNQSALLYGTLSSEAPQDGESTRSGYCAMISRIPRGAFERKMSYDWSQFNTLYLRVRGDGRPWMVNIKEDTDFFQRTNQMYSYFMFTRGGPYWQEVKIPFSKFFFSNRGRIRDVQHELPLDKISSIGFTLADKVDGPFFLEIDFIGVFTDPAHTEEFAYENSPELNPRLFK
B2: the binding result in experiment [1] and in experiment [2] was “no binding” each time.
